Experimental findings from publication PMC5758779 are described below.

Sequences of proteins named here, by UniProt entry; tags and fusion partners are left off.
UniProt Q00444: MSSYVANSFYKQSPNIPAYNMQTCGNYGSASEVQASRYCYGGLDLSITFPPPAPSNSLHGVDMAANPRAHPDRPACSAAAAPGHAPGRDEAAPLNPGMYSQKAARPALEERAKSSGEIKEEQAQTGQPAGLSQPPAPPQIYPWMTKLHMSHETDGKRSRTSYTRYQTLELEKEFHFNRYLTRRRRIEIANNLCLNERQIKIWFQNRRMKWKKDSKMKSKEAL
UniProt Q13547: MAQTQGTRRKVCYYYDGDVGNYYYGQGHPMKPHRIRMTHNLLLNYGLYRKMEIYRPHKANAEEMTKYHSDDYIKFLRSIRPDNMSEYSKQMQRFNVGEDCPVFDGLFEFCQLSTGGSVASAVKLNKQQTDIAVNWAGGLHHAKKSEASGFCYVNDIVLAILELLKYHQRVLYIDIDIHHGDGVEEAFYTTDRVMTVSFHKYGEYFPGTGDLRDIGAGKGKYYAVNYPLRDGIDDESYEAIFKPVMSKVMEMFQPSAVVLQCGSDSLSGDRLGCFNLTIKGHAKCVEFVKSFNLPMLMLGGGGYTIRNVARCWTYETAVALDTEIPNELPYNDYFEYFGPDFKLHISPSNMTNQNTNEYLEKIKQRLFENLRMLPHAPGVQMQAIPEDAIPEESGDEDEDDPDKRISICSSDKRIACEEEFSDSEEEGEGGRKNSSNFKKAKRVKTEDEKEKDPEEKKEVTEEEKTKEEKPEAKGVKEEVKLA
UniProt O15379: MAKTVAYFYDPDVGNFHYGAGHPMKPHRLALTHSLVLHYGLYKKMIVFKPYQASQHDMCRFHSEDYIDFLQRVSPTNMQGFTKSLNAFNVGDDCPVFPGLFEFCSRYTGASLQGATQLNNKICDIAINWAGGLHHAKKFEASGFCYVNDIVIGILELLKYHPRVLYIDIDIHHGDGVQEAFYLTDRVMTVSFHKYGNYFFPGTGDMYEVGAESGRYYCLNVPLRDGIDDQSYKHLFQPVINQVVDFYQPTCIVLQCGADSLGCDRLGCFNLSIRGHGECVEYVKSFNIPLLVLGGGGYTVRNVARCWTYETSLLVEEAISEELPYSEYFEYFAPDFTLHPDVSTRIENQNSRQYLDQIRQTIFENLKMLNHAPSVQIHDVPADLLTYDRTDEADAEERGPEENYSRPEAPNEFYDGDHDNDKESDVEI

The target of one test is T1, V5-tagged PBX4 (human) (UniProt Q9BYU1).
T1 sequence: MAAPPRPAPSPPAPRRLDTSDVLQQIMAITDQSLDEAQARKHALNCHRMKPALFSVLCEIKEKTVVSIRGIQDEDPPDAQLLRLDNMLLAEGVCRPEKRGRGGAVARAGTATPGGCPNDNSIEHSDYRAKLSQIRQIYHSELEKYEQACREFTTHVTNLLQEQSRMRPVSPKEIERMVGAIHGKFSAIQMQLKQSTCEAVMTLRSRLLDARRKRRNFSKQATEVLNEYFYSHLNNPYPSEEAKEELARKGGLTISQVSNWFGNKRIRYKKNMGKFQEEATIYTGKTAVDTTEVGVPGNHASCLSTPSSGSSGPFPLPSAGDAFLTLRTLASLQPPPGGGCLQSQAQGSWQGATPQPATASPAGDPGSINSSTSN
Nature of the test: co-IP; immunoprecipitation of V5-tagged PBX4, Flag-tagged HDAC1, HDAC2 or HDAC3 detected; transiently co-expressed in HeLa cells (Supplementary Fig. 8c, 8d).

Test [1] concerns the target V5-tagged HoxC5 (human) (UniProt Q00444). Description: co-IP; immunoprecipitation of V5-tagged HoxC5, Flag-tagged HDAC1, HDAC2 or HDAC3 detected; transiently co-expressed in HeLa cells (Supplementary Fig. 8b).
Test [2] has the same target. Description: co-IP; immunoprecipitation of V5-tagged HoxC5, Flag-tagged Pbx1-4 detected; HeLa cells.
Test [3] deals with recombinant 6xHis-tagged HoxC5 (human) (UniProt Q00444). Description: pull-down; in vitro binding assay: purified recombinant 6xHis-tagged HoxC5 from bacteria pulls down in vitro translated, 35S-Methionine labeled Pbx proteins; only the target purified.
Test [4] addresses Flag-tagged HoxC5 (human) (UniProt Q00444). Nature of the test: co-IP; immunoprecipitation of Flag-tagged HoxC5, V5-tagged Meis1-3 detected; HeLa cells.

Results are given in words; binding and its absence hold for the method and conditions named. In cells and extracts the contact can be indirect. Some entries that bind do so weakly or less than the wild type. For part of these data: Sequences can lack the tags named with a protein.

With “Flag-tagged HDAC1 (from UniProt Q13547 1-482) (enzyme)”, the binding entry in the test with V5-tagged PBX4 (human) is given as “binds”. “Flag-tagged HDAC3 (from UniProt O15379 1-428) (enzyme)”: the binding entry with V5-tagged HoxC5 (human) [1] and with V5-tagged PBX4 (human) was “binds” throughout.

B1: Flag-tagged Pbx2 (protein, UniProt P40425 1-430)
chain: MDERLLGPPPPGGGRGGLGLVSGEPGGPGEPPGGGDPGGGSGGVPGGRGKQDIGDILQQIMTITDQSLDEAQAKKHALNCHRMKPALFSVLCEIKEKTGLSIRSSQEEEPVDPQLMRLDNMLLAEGVAGPEKGGGSAAAAAAAAASGGGVSPDNSIEHSDYRSKLAQIRHIYHSELEKYEQACNEFTTHVMNLLREQSRTRPVAPKEMERMVSIIHRKFSAIQMQLKQSTCEAVMILRSRFLDARRKRRNFSKQATEVLNEYFYSHLSNPYPSEEAKEELAKKCGITVSQVSNWFGNKRIRYKKNIGKFQEEANIYAVKTAVSVTQGGHSRTSSPTPPSSAGSGGSFNLSGSGDMFLGMPGLNGDSYSASQVESLRHSMGPGGYGDNLGGGQMYSPREMRANGSWQEAVTPSSVTSPTEGPGSVHSDTSN
Turning to B1, the binding result with V5-tagged HoxC5 (human) [2] is given as “no binding”.

B2: in vitro translated and 35S-Methionine labeled Pbx2 (protein, UniProt P40425 1-430)
chain: B1 chain
modifications: 35S-Methionine labeled
Consider B2, for which, in test [3], the binding result is on record as “no binding”.

B3: V5-tagged Meis2 (protein, UniProt O14770 1-477)
chain: MAQRYDELPHYGGMDGVGVPASMYGDPHAPRPIPPVHHLNHGPPLHATQHYGAHAPHPNVMPASMGSAVNDALKRDKDAIYGHPLFPLLALVFEKCELATCTPREPGVAGGDVCSSDSFNEDIAVFAKQVRAEKPLFSSNPELDNLMIQAIQVLRFHLLELEKVHELCDNFCHRYISCLKGKMPIDLVIDERDGSSKSDHEELSGSSTNLADHNPSSWRDHDDATSTHSAGTPGPSSGGHASQSGDNSSEQGDGLDNSVASPGTGDDDDPDKDKKRQKKRGIFPKVATNIMRAWLFQHLTHPYPSEEQKKQLAQDTGLTILQVNNWFINARRRIVQPMIDQSNRAGFLLDPSVSQGAAYSPEGQPMGSFVLDGQQHMGIRPAGLQSMPGDYVSQGGPMGMSMAQPSYTPPQMTPHPTQLRHGPPMHSYLPSHPHHPAMMMHGGPPTHPGMTMSAQSPTMLNSVDPNVGGQVMDIHAQ
On to B3, for which, in test [4], the binding entry is “no binding”.

B4: Flag-tagged Pbx4 (protein, UniProt Q9BYU1 1-374)
chain: T1 sequence
B4: the binding result with V5-tagged HoxC5 (human) [2] is “binds”.

B5: in vitro translated and 35S-Methionine labeled Pbx4 (protein, UniProt Q9BYU1 1-374)
chain: T1 sequence
modifications: 35S-Methionine labeled
Consider B5, for which the binding result in test [3] is reported as “binds”.

B6: V5-tagged Meis3 (protein, UniProt Q99687 1-375)
chain: MARRYDELPHYPGIVDGPAALASFPETVPAVPGPYGPHRPPQPLPPGLDSDGLKREKDEIYGHPLFPLLALVFEKCELATCSPRDGAGAGLGTPPGGDVCSSDSFNEDIAAFAKQVRSERPLFSSNPELDNLMIQAIQVLRFHLLELEKVHDLCDNFCHRYITCLKGKMPIDLVIEDRDGGCREDFEDYPASCPSLPDQNNMWIRDHEDSGSVHLGTPGPSSGGLASQSGDNSSDQGDGLDTSVASPSSGGEDEDLDQERRRNKKRGIFPKVATNIMRAWLFQHLSHPYPSEEQKKQLAQDTGLTILQVNNWFINARRRIVQPMIDQSNRTGQGAAFSPEGQPIGGYTETQPHVAVRPPGSVGMSLNLEGEWHYL
B6: in test [4], the binding result was “binds”.

B7: Flag-tagged Pbx3 (protein, UniProt P40426 1-434)
chain: MDDQSRMLQTLAGVNLAGHSVQGGMALPPPPHGHEGADGDGRKQDIGDILHQIMTITDQSLDEAQAKKHALNCHRMKPALFSVLCEIKEKTGLSIRGAQEEDPPDPQLMRLDNMLLAEGVSGPEKGGGSAAAAAAAAASGGSSDNSIEHSDYRAKLTQIRQIYHTELEKYEQACNEFTTHVMNLLREQSRTRPISPKEIERMVGIIHRKFSSIQMQLKQSTCEAVMILRSRFLDARRKRRNFSKQATEILNEYFYSHLSNPYPSEEAKEELAKKCSITVSQVSNWFGNKRIRYKKNIGKFQEEANLYAAKTAVTAAHAVAAAVQNNQTNSPTTPNSGSSGSFNLPNSGDMFMNMQSLNGDSYQGSQVGANVQSQVDTLRHVINQTGGYSDGLGGNSLYSPHNLNANGGWQDATTPSSVTSPTEGPGSVHSDTSN
As to B7, the binding entry with V5-tagged HoxC5 (human) [2] is “no binding”.

B8: in vitro translated and 35S-Methionine labeled Pbx3 (protein, UniProt P40426 1-434)
chain: B7 chain
modifications: 35S-Methionine labeled
Regarding B8, the binding entry in test [3] is reported as “no binding”.

B9: V5-tagged Meis1 (protein, UniProt O00470 1-390)
chain: MAQRYDDLPHYGGMDGVGIPSTMYGDPHAARSMQPVHHLNHGPPLHSHQYPHTAHTNAMAPSMGSSVNDALKRDKDAIYGHPLFPLLALIFEKCELATCTPREPGVAGGDVCSSESFNEDIAVFAKQIRAEKPLFSSNPELDNLMIQAIQVLRFHLLELEKVHELCDNFCHRYISCLKGKMPIDLVIDDREGGSKSDSEDITRSANLTDQPSWNRDHDDTASTRSGGTPGPSSGGHTSHSGDNSSEQGDGLDNSVASPSTGDDDDPDKDKKRHKKRGIFPKVATNIMRAWLFQHLTHPYPSEEQKKQLAQDTGLTILQVNNWFINARRRIVQPMIDQSNRAVSQGTPYNPDGQPMGGFVMDGQQHMGIRAPGPMSGMGMNMGMEGQWHYM
Turning to B9, the binding entry in test [4] is on record as “no binding”.
